Measured values from paper PMC4823986.
No constants are given. Whether binding was seen depends on the method and setting. In cells and extracts the contact can be indirect. Here binding means that the protein was enriched with, or labelled near, the bait; the list need not be complete.

Chains of the proteins cited; added tags and fusions are not shown. Lines headed by an entry give the natural chain unless they say otherwise; changes in a name come on top.
UniProt P46223: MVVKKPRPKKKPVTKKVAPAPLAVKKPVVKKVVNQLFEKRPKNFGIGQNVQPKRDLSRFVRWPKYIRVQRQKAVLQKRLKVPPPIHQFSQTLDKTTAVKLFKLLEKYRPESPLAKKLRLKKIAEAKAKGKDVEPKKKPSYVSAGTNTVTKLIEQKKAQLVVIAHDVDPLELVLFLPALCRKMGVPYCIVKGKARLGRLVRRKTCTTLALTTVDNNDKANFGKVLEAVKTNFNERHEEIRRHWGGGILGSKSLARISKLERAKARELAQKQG

T1: Clueless (Clu), endogenous in S2R+ cells (Drosophila (endogenous in S2R+ cells)) (UniProt A1ZAB5)
T1 sequence: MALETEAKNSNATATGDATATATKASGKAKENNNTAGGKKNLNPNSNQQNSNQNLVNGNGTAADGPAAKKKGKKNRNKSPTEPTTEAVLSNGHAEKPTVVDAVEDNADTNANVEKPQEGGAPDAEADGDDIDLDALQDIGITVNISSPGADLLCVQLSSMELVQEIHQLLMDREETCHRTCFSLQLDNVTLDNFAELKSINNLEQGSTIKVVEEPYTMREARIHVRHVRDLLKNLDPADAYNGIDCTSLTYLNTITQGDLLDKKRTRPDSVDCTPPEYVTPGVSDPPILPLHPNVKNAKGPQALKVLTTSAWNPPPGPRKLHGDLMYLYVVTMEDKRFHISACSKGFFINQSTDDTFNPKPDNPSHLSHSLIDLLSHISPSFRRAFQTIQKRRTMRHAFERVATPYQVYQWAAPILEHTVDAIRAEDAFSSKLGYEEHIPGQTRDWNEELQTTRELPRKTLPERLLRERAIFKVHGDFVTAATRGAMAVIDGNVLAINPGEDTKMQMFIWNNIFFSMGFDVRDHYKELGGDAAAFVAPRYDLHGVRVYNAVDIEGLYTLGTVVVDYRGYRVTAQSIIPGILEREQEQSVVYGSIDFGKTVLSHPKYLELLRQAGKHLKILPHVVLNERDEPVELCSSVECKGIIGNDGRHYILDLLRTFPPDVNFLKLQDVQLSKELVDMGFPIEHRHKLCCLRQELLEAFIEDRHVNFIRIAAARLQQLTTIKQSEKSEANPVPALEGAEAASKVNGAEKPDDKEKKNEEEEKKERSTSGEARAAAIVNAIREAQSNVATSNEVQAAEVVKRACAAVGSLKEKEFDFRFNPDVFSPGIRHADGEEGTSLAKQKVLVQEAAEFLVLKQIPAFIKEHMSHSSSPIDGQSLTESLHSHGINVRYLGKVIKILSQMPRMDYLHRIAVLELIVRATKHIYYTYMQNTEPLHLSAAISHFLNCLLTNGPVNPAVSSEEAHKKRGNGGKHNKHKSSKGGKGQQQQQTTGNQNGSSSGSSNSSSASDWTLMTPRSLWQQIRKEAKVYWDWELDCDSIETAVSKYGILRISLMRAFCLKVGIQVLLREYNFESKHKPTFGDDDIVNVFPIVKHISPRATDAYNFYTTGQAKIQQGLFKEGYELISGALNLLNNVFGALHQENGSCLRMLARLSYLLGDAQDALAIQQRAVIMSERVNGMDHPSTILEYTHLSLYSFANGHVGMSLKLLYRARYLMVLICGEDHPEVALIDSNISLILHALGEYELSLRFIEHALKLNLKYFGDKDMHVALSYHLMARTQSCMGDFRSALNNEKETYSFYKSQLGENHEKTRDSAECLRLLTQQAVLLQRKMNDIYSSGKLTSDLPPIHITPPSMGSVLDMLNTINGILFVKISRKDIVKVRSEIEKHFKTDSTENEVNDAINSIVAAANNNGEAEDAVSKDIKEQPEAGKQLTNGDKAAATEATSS

B1: small Ribosomal protein RpS7, endogenous in S2R+ cells (protein, UniProt Q9VA91 1-194)
chain: MAIGSKIIKPGGSDPDDFEKSIAQALVELEANSDLKPYLRDLHITRAREIEFGSKKAVIIYVPIPQQKVFQKIQIILVRELEKKFSGKHVVVIAERKILPKPTRKARNPLKQKRPRSRTLTAVYDAILEDLVFPAEIVGKRIRVKLDGSQLVKVHLDKNQQTTIEHKVDTFTSVYKKLTGRDVTFEFPDNYLNV
B2: small Ribosomal protein (RpS) 4, endogenous in S2R+ cells (protein, UniProt P41042 1-261)
chain: MARGPKKHLKRLAAPKAWMLDKLGGVFAPRPSTGPHKLRESLPLLIFLRNRLKYALNGAEVTKIVMQRLVKVDGKVRTDPTYPAGYMDVITLEKTGEFFRLVYDVKGRFVIHRISAEEAKYKLCKVKKTQLGAKGVPFLVTHDGRTIRYPDPLIHANDSVQVDIASGKITDYIKFDSGNLCMITGGRNLGRVGTVVNRERHPGSFDIVHIKDSQGHVFATRLTNVFIIGKGNKPYISLPKGKGVKLSIAEERDKRLAAKTH

The molecules below were run against T1, Clueless (Clu), endogenous in S2R+ cells (Drosophila (endogenous in S2R+ cells)) (assay: affinity purification with mass spectrometry; anti-Clu IP from S2R+ cell extract, guinea pig IgG as control; Colloidal Blue bands (~38 kDa and ~30 kDa) cut and analysed by NanoLC-ESI-MS/MS).

binding, binds:
large Ribosomal protein (RpL) 7a, endogenous in S2R+ cells (from UniProt P46223 1-271)
B1
B2
